Data published in the supplement of paper PMC10849652.
Some of the results follow.

Sequences of proteins named here, by UniProt entry; tags and fusion partners are left off. A change or cut given only in a name is not applied to a line headed by its entry.
UniProt Q9Y263: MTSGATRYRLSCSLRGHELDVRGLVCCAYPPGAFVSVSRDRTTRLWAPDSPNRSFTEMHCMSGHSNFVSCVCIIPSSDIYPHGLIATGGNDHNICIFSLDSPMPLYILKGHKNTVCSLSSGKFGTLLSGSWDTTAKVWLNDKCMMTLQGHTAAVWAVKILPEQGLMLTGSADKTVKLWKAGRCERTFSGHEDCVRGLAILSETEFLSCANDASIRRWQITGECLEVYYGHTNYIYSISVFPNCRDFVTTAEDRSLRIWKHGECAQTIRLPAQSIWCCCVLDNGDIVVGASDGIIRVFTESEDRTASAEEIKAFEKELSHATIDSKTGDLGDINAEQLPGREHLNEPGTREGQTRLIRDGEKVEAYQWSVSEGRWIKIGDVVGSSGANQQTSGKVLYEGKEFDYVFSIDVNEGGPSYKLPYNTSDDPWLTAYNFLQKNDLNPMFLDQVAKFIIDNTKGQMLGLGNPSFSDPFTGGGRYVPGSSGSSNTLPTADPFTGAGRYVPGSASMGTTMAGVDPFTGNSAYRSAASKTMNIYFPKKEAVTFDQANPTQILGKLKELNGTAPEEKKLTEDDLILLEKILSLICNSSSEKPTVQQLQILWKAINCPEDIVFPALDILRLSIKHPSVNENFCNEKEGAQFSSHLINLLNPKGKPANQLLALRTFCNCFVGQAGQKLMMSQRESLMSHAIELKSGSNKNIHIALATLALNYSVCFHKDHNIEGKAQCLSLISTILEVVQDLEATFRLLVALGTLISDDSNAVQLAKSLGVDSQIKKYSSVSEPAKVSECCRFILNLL
UniProt Q92521: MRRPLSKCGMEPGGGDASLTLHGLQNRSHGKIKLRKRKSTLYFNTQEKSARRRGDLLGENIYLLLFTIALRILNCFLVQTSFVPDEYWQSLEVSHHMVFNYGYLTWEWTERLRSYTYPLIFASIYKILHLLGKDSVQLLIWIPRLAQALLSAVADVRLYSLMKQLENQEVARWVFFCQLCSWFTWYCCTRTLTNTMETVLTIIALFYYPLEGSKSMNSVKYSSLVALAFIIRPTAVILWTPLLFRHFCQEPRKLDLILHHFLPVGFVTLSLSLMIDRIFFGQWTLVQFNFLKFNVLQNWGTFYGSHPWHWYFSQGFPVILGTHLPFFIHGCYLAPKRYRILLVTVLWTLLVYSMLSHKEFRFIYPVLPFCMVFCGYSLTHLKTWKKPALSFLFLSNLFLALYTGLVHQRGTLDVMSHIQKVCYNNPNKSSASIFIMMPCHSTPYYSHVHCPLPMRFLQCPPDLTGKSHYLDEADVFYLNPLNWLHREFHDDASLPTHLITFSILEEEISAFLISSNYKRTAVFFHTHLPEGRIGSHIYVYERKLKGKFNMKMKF
UniProt P40855: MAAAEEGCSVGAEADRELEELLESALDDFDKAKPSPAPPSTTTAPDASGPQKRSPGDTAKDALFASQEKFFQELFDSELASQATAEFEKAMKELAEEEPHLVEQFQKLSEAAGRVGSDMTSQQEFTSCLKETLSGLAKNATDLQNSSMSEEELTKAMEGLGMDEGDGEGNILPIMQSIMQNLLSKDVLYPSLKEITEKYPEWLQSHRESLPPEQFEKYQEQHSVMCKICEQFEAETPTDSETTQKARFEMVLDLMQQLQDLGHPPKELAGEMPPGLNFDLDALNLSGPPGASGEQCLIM
UniProt Q96HS1, whole entry, looked up: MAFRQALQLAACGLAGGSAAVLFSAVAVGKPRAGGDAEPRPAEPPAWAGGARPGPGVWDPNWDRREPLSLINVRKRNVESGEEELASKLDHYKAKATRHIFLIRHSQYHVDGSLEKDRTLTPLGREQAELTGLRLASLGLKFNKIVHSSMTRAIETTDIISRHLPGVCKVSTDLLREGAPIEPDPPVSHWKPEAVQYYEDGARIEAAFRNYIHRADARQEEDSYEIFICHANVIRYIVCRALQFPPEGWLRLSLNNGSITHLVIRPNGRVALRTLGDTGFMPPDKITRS
UniProt Q13608: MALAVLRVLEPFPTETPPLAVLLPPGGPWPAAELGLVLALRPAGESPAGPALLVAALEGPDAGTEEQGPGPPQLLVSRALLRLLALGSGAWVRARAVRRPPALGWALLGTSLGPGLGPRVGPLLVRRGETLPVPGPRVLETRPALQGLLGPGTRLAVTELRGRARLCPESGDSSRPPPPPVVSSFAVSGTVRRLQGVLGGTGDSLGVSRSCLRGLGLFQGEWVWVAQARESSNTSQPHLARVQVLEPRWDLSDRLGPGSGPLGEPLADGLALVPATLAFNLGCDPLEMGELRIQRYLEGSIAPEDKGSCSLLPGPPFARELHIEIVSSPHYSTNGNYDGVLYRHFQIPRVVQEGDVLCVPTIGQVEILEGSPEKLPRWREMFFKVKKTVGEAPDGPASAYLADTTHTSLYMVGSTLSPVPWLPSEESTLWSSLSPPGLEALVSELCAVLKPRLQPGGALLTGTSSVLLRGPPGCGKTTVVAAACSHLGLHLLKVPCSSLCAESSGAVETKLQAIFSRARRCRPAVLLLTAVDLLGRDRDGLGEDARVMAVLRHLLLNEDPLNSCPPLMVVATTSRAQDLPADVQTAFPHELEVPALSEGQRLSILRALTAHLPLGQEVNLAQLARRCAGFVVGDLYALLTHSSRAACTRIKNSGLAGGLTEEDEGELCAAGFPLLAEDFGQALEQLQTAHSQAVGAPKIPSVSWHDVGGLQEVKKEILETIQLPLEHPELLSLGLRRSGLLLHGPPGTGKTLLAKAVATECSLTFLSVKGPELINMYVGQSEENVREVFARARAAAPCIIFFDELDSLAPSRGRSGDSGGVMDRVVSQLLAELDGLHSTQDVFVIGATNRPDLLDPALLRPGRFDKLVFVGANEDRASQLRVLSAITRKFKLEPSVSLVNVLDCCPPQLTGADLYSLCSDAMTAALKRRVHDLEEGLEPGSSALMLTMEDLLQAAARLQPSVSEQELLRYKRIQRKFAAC
UniProt Q8N0Y7: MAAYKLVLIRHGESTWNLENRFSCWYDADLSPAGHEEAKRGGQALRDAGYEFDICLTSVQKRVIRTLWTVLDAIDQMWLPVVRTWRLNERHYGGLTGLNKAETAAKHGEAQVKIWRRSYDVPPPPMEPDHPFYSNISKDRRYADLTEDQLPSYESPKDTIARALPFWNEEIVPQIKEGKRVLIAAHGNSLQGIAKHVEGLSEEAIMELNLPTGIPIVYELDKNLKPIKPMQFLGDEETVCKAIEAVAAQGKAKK
UniProt Q16875: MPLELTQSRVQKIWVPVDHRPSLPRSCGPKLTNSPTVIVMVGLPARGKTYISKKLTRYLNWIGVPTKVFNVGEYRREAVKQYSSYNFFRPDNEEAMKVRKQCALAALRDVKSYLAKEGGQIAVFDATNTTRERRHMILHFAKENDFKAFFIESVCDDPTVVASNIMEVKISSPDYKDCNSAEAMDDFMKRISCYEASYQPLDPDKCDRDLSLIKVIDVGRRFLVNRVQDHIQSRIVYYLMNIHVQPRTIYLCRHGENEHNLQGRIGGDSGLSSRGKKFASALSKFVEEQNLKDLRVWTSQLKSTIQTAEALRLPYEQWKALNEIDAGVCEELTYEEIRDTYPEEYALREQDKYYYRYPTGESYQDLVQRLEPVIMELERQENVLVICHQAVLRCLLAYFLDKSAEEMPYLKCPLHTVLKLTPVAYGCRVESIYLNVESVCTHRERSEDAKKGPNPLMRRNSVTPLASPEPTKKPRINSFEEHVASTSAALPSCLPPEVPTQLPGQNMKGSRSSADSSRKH
UniProt Q32NB8: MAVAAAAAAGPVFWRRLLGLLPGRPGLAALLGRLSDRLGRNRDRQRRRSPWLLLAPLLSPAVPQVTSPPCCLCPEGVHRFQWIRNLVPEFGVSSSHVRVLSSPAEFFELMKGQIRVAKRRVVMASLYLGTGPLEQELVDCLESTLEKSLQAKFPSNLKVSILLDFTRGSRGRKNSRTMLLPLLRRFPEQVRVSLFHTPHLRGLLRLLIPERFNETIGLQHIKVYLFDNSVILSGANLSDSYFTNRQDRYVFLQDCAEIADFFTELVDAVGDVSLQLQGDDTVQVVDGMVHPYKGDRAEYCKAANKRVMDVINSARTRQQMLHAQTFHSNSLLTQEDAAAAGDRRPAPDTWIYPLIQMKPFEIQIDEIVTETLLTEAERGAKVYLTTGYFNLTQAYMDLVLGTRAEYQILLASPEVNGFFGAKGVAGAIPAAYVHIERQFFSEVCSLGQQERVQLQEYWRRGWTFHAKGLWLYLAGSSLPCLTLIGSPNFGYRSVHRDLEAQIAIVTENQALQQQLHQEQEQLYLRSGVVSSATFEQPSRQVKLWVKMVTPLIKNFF
UniProt Q9BRB3: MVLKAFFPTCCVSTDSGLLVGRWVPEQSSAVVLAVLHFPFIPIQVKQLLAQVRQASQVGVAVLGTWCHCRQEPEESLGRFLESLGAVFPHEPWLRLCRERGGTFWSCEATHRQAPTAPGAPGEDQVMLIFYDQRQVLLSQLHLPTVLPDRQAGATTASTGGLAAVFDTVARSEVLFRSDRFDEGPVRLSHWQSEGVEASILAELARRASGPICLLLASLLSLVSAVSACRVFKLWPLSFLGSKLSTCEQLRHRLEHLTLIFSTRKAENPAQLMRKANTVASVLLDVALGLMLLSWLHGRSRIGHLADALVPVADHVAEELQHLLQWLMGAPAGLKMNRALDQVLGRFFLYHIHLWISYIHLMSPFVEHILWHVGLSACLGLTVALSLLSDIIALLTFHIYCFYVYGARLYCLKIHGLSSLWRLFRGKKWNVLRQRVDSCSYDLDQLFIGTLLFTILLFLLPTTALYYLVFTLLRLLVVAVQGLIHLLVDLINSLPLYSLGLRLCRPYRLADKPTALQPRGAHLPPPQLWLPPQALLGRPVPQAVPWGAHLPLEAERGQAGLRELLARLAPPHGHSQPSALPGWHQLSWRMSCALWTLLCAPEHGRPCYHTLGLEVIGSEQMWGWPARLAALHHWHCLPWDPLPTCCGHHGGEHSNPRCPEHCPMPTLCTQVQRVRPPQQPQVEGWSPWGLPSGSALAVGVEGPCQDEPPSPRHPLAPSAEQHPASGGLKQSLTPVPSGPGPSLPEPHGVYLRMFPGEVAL
UniProt Q13526, whole entry, looked up: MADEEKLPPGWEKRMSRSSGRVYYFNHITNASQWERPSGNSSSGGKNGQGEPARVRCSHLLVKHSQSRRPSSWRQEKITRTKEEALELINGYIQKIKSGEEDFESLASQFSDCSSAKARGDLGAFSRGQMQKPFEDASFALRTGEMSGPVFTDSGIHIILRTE
UniProt Q13393: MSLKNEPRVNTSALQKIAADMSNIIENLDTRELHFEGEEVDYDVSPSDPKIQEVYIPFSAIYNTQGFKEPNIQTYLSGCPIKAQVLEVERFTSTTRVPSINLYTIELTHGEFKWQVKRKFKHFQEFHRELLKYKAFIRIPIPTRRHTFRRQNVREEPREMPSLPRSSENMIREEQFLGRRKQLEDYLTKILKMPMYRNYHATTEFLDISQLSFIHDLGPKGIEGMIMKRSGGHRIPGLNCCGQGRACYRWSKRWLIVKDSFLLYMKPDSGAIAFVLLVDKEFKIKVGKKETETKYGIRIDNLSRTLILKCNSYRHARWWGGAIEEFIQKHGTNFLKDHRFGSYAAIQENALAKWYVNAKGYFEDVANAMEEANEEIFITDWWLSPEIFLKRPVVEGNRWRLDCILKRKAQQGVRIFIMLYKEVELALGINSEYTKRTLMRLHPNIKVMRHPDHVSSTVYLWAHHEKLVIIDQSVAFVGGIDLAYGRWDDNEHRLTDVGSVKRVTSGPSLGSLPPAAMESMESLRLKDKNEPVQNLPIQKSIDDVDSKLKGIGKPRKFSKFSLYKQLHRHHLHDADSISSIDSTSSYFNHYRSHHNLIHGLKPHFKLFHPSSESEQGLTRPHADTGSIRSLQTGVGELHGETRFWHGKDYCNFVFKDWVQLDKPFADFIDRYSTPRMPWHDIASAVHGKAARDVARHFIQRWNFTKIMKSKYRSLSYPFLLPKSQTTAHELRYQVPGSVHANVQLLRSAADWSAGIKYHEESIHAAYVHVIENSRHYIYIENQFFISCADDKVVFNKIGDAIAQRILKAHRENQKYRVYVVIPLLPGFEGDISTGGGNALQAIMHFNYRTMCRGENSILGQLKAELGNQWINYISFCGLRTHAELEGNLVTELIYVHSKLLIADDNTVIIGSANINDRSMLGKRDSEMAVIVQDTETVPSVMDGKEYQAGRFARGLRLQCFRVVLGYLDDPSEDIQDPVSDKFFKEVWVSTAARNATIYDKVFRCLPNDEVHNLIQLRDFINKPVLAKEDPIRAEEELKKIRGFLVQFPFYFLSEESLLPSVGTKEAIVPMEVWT
UniProt P18669: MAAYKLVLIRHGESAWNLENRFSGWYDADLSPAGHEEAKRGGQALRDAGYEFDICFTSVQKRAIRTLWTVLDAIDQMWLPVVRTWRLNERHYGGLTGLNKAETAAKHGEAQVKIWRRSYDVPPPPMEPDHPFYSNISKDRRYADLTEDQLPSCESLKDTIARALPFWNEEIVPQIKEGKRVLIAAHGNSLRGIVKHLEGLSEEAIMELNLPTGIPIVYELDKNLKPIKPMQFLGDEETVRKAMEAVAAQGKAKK

What was measured:
Experiment in all cases: log2 fold change, soluble protein after heating vs DMSO (PISA); higher = thermal stabilisation; K562 cells, 10 uM, 30 min; active = over 0.2 and 3.5 SD of the protein, either way, in both replicates (recomputed)
[1] = compound: CS(=O)(=O)c1ccc(-c2cnc(N)c(C(=O)Nc3ccccc3)n2)cc1
In short: (§1)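 Thermal stability values are relative to control samples and come from duplicates. They are expressed as log2 fold changes. For measurement, K562 cells (2×10^6 cells/mL) received 10 μM compound for 30 min, and aliquots were heated for 3 min over 48°C-58°C, pooled, and extracted at 4°C in PBS with 0.5% NP-40. Soluble protein, the supernatant after 21,000xg for 90 min, was quantified by TMTpro 16plex LC-MS/MS with equalised channel sums.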

crizotinib = compound: C[C@@H](Oc1cc(-c2cnn(C3CCNCC3)c2)cnc1N)c1c(Cl)ccc(F)c1Cl [crizotinib]
In short: as §1

[2] = compound: C[C@@H]1COCCN1C2=NC(=NC(=C2)C3(CC3)S(=O)(=O)C)C4=C5C=CNC5=CC=C4
In short: as §1

[3] = compound: C[C@H](C1=CC=C(C=C1)C(=O)NC2=C3C=CNC3=NC=C2)N
In short: as §1

duvelisib = compound: C[C@H](Nc1ncnc2nc[nH]c12)c1cc2cccc(Cl)c2c(=O)n1-c1ccccc1 [duvelisib]
In short: as §1

gandotinib = compound: Cc1cc(Nc2cc(CN3CCOCC3)c3nc(C)c(Cc4ccc(Cl)cc4F)n3n2)n[nH]1 [gandotinib]
In short: as §1

tozasertib = compound: Cc1cc(Nc2cc(N3CCN(C)CC3)nc(Sc3ccc(NC(=O)C4CC4)cc3)n2)n[nH]1 [tozasertib]
In short: as §1

[4] = compound: Cc1cc(SCc2sc(-c3ccc(C(F)(F)F)cc3)nc2C)ccc1OCC(=O)O
In short: as §1

doramapimod = compound: Cc1ccc(-n2nc(C(C)(C)C)cc2NC(=O)Nc2ccc(OCCN3CCOCC3)c3ccccc23)cc1 [doramapimod]
In short: as §1

ispinesib = compound: Cc1ccc(C(=O)N(CCCN)[C@@H](c2nc3cc(Cl)ccc3c(=O)n2Cc2ccccc2)C(C)C)cc1 [ispinesib]
In short: as §1

Measured: log2 fold change

PIK3R2 (UniProt O00459)
inactive: [1] 0.042 | crizotinib -0.039 | [2] 0.218 | [3] 0.018 | duvelisib 0.1 | gandotinib -0.01 | tozasertib -0.047 | [4] 0.017 | doramapimod -0.004 | ispinesib -0.111

PLAA (UniProt Q9Y263)
inactive: [1] 0.03 | crizotinib -0.074 | [2] 0.01 | [3] -0.03 | duvelisib 0.058 | gandotinib -0.113 | tozasertib -0.003 | [4] 0.101 | doramapimod -0.013 | ispinesib -0.015

PLEC (UniProt Q15149)
inactive: [1] 0.001 | crizotinib -0.03 | [2] -0.147 | [3] 0.256 | duvelisib -0.051 | gandotinib 0.123 | tozasertib 0.077 | [4] 0.075 | doramapimod 0.09 | ispinesib -0.124

PEX2 (UniProt P28328)
inactive: [1] 0.209 | crizotinib 0.062 | [2] 0.054 | [3] 0.041 | duvelisib -0.063 | gandotinib -0.18 | tozasertib -0.001 | [4] -0.006 | doramapimod 0.007 | ispinesib -0.144

PIGK (UniProt Q92643)
inactive: [1] 0.071 | crizotinib 0.039 | [2] 0.003 | [3] 0.151 | duvelisib -0.028 | gandotinib 0.014 | tozasertib 0.048 | [4] 0.003 | doramapimod 0.006 | ispinesib 0.017

PIGB (UniProt Q92521)
inactive: [1] -0.012 | crizotinib -0.079 | [2] -0.058 | [3] 0.002 | duvelisib -0.132 | gandotinib -0.149 | tozasertib -0.043 | [4] 0.098 | doramapimod 0.002 | ispinesib -0.11

PEX19 (UniProt P40855)
inactive: [1] -0.017 | crizotinib 0.068 | [2] -0.01 | [3] -0.008 | duvelisib 0 | gandotinib 0.085 | tozasertib 0.01 | [4] -0.043 | doramapimod -0.04 | ispinesib -0.015

PFDN6 (UniProt O15212)
inactive: [1] -0.021 | crizotinib 0.077 | [2] 0.08 | [3] -0.021 | duvelisib 0.083 | gandotinib -0.025 | tozasertib 0.009 | [4] -0.02 | doramapimod -0.029 | ispinesib -0.027

PHACTR4 isoform 2 (UniProt Q8IZ21)
inactive: [1] 0.048 | crizotinib 0.117 | [2] 0.017 | [3] 0.003 | duvelisib 0.007 | gandotinib 0.093 | tozasertib 0 | [4] -0.029 | doramapimod -0.103 | ispinesib 0.097

PKLR (UniProt P30613)
inactive: [1] 0 | crizotinib 0.019 | [2] 0.023 | [3] -0.082 | duvelisib 0.012 | gandotinib -0.038 | tozasertib 0 | [4] -0.041 | doramapimod -0.024 | ispinesib 0.011

PFKP (UniProt Q01813)
inactive: [1] -0.008 | crizotinib 0.046 | [2] 0.01 | [3] -0.024 | duvelisib 0.062 | gandotinib -0.063 | tozasertib -0.02 | [4] 0.01 | doramapimod 0 | ispinesib 0.019

PGRMC2 isoform 2 (UniProt O15173)
inactive: [1] 0.005 | crizotinib 0.092 | [2] -0.006 | [3] -0.09 | duvelisib 0.008 | gandotinib 0.073 | tozasertib -0.003 | [4] 0.018 | doramapimod -0.028 | ispinesib 0.098

PGAM5 (UniProt Q96HS1)
inactive: [1] -0.032 | crizotinib -0.016 | [2] -0.153 | [3] 0.17 | duvelisib -0.022 | gandotinib 0.098 | tozasertib -0.011 | [4] 0 | doramapimod 0.144 | ispinesib -0.116

PGP (UniProt A6NDG6)
inactive: [1] 0.004 | crizotinib 0.045 | [2] 0.045 | [3] -0.086 | duvelisib 0.038 | gandotinib -0.003 | tozasertib -0.019 | [4] -0.03 | doramapimod -0.04 | ispinesib 0.039

PEX6 (UniProt Q13608)
inactive: [1] 0.102 | crizotinib 0.053 | [2] 0.038 | [3] 0.041 | duvelisib 0.02 | gandotinib -0.001 | tozasertib 0.005 | [4] 0.049 | doramapimod -0.007 | ispinesib 0.05

PFKFB2 (UniProt O60825)
inactive: [1] 0.065 | crizotinib 0.011 | [2] 0.036 | [3] -0.048 | duvelisib -0.037 | gandotinib -0.014 | tozasertib -0.038 | [4] 0.011 | doramapimod -0.023 | ispinesib 0.012

PGAM4 (UniProt Q8N0Y7)
inactive: [1] 0.018 | crizotinib -0.018 | [2] 0.04 | [3] -0.057 | duvelisib 0.033 | gandotinib 0.021 | tozasertib -0.006 | [4] -0.071 | doramapimod -0.01 | ispinesib 0

PFKFB3 isoform 4 (UniProt Q16875)
inactive: [1] 0 | crizotinib -0.008 | [2] 0.03 | [3] 0.011 | duvelisib 0.05 | gandotinib 0.066 | tozasertib -0.012 | [4] -0.064 | doramapimod -0.025 | ispinesib 0.033

PGS1 (UniProt Q32NB8)
inactive: [1] -0.001 | crizotinib -0.064 | [2] 0.038 | [3] 0.052 | duvelisib -0.01 | gandotinib 0.224 | tozasertib -0.042 | [4] 0.117 | doramapimod 0.025

PI4KB (UniProt Q9UBF8)
inactive: [1] -0.159 | crizotinib -0.197 | [2] 0.047 | [3] 0.036 | duvelisib -0.029 | gandotinib -0.065 | tozasertib -0.107 | [4] 0.038 | doramapimod 0.027 | ispinesib -0.147

PIGQ (UniProt Q9BRB3)
inactive: [1] 0.142 | crizotinib 0.039 | [2] 0.061 | [3] -0.179 | duvelisib 0.094 | gandotinib -0.029 | tozasertib 0.081 | [4] 0.072 | doramapimod -0.027 | ispinesib 0.117

Two successive records out of the list so far:
PGAM4 (UniProt Q8N0Y7)
inactive: [1] 0.018 | crizotinib -0.018 | [2] 0.04 | [3] -0.057 | duvelisib 0.033 | gandotinib 0.021 | tozasertib -0.006 | [4] -0.071 | doramapimod -0.01 | ispinesib 0

PFKFB3 isoform 4 (UniProt Q16875)
inactive: [1] 0 | crizotinib -0.008 | [2] 0.03 | [3] 0.011 | duvelisib 0.05 | gandotinib 0.066 | tozasertib -0.012 | [4] -0.064 | doramapimod -0.025 | ispinesib 0.033

The listing continues:

PIN1 (UniProt Q13526)
inactive: [1] 0.027 | crizotinib 0.073 | [2] 0.012 | [3] -0.102 | duvelisib 0.048 | gandotinib 0.046 | tozasertib -0.023 | [4] -0.031 | doramapimod -0.051 | ispinesib 0.073

PGD (UniProt P52209)
inactive: [1] 0.02 | crizotinib -0.041 | [2] 0.047 | [3] -0.041 | duvelisib 0.01 | gandotinib -0.017 | tozasertib -0.032 | [4] -0.015 | doramapimod 0.006 | ispinesib 0

PLD1 (UniProt Q13393)
inactive: [1] 0.08 | crizotinib -0.232 | [2] -0.218 | [3] 0.175 | duvelisib -0.141 | gandotinib 0.152 | tozasertib -0.004 | [4] 0.105 | doramapimod 0.113 | ispinesib -0.383

PIGN (UniProt O95427)
inactive: [1] -0.007 | crizotinib -0.004 | [2] 0.015 | [3] 0.276 | duvelisib 0.167 | gandotinib -0.175 | tozasertib 0.003 | [4] 0.068 | doramapimod 0.118 | ispinesib 0.03

PFDN4 (UniProt Q9NQP4)
inactive: [1] -0.019 | crizotinib -0.067 | [2] -0.086 | [3] 0.01 | duvelisib 0.066 | gandotinib -0.082 | tozasertib -0.113 | [4] -0.05 | doramapimod 0.065 | ispinesib -0.077

PHB2 (UniProt Q99623)
inactive: [1] -0.01 | crizotinib 0.031 | [2] 0.003 | [3] -0.029 | duvelisib 0 | gandotinib -0.021 | tozasertib -0.002 | [4] -0.026 | doramapimod -0.003 | ispinesib -0.013

PGAM1 (UniProt P18669)
inactive: [1] -0.028 | crizotinib -0.039 | [2] -0.012 | [3] -0.065 | duvelisib 0.006 | gandotinib -0.022 | tozasertib 0.004 | [4] 0.011 | doramapimod -0.005 | ispinesib -0.02

PI4KA (UniProt P42356)
inactive: [1] 0.14 | crizotinib -0.009 | [2] -0.114 | [3] 0.148 | duvelisib 0.056 | gandotinib 0.061 | tozasertib 0.03 | [4] 0.041 | doramapimod 0.037 | ispinesib -0.068

PIGS (UniProt Q96S52)
inactive: [1] 0.004 | crizotinib -0.009 | [2] -0.036 | [3] 0.053 | duvelisib 0.053 | gandotinib -0.037 | tozasertib -0.016 | [4] 0.035 | doramapimod 0.008 | ispinesib -0.007
